Assay [1] has as its target endogenous HDAC1 (histone deacetylase 1) in IMR90 cells (human (endogenous in IMR90)) (UniProt Q13547). The assay can be described thus: proximity ligation; PLA of hCINAP and HDAC1 in IMR90 cells.
For assay [2], the target named is endogenous p14ARF (human (endogenous in HEK293T and IMR90)) (UniProt Q8N726). Nature of the assay: proximity ligation; Duolink PLA in fixed IMR90 cells with anti-hCINAP and anti-p14ARF antibodies.
Assay [3] has the same target. The assay can be described thus: co-IP; endogenous hCINAP and p14ARF, indicated antibodies; cells not given.
For assay [4], the target named is HDAC1 (histone deacetylase 1) in HEK293T cells (UniProt Q13547). Nature of the assay: co-IP; hCINAP and HDAC1 in HEK293T cells.
For assay [5], the target named is p14ARF full-length (FL), transfected (UniProt Q8N726). Nature of the assay: co-IP; HEK293T cells transfected with hCINAP and p14ARF FL, N64 or C65.
The target in the next assay is HDAC2 (UniProt Q92769). Nature of the assay: co-IP + proximity ligation; Supplementary Figure S4C; which of the two methods was used for HDAC2 is not told.

By UniProt entry, the sequences of proteins in these tests, tags left out.
UniProt Q13547: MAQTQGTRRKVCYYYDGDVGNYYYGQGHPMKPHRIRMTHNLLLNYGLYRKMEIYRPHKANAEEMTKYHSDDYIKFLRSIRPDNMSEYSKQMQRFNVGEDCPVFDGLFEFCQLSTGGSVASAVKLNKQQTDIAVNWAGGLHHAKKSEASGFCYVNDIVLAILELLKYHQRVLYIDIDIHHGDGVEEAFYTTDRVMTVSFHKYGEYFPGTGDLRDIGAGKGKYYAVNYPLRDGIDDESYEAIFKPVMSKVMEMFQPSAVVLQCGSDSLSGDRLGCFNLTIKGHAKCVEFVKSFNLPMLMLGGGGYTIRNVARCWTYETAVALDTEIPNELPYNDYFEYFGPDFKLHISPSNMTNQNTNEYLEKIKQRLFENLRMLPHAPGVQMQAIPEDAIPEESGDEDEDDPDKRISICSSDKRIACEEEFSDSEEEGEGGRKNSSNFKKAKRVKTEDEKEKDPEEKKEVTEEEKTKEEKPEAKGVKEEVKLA
UniProt Q8N726: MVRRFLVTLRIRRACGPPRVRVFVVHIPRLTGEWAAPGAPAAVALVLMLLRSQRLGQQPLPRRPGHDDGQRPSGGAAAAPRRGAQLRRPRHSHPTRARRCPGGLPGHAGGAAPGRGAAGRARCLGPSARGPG
UniProt Q92769: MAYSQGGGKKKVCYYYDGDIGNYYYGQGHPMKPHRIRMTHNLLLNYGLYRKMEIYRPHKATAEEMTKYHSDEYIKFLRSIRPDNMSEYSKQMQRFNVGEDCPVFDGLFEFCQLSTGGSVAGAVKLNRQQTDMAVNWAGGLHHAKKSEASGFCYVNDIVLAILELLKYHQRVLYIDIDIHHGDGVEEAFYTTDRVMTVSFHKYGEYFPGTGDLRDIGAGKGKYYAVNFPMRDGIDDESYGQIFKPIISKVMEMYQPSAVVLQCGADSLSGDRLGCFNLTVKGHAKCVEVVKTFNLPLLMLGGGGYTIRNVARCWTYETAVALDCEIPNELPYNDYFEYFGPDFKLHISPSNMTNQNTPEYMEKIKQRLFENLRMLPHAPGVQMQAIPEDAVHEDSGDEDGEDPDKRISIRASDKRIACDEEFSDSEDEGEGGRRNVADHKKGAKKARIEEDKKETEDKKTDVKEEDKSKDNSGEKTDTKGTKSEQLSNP
UniProt Q9Y3D8: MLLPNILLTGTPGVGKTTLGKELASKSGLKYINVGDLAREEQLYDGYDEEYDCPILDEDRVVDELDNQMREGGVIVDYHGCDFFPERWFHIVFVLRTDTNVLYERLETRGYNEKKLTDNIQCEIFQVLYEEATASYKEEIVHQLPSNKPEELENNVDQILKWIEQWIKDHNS

These are yes or no findings as the source states them, for the method shown. Binding seen in cells or lysates may run through a third protein. Some results given as binding are weak or reduced against the parent protein; the word gives no strength.

“endogenous hCINAP (human coilin-interacting nuclear ATPase protein) (from UniProt Q9Y3D8 1-172)”: the binding result in assay [1], in assay [2] and in assay [3] was “binds” throughout.
On to “hCINAP in HEK293T cells (co-IP experiments with the indicated plasmids) (from UniProt Q9Y3D8 1-172)”, for which the binding result in assay [4] is reported as “binds”; in assay [5], “binds”; in the assay with HDAC2, “no binding”.

These data come from PMC10476552.
